The AC50 is the concentration at which the activity in the assay is half-maximal.

SMILES strings stand for the structures. The list shows a part of the results. These are further read-outs of the screen, such as a control signal, another cell line or another target. No call is given for them. Compounds called inactive in the main read-out are mostly missing here. Words in brackets tell the shape of the fitted curve; partial curves, single points and poor fits give uncertain potencies.

This test in a line: qHTS Assay to Find Inhibitors of Chronic Active B-Cell Receptor Signaling. To be noted: ABC-DLBCL IkBa-CBG/CBR reporter, luminescence ratio (green luciferase fused to IkBa over red control in TMD8 lymphoma cells), 4 h. In short, it runs like this:
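Cell line TMD8 (human ABC DLBCL), stably expressing tet-inducible CBG68-IkBa fusion and CBR; IMDM/0.5% FBS; cpd up to 46 uM; dox induction, 4 h, 37C/5% CO2; dual luminescence; green/red ratio; MG132 control.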
(In general: Quantitative high-throughput screening tests each substance at several concentrations.)

Where [1] appears, read: measured here: CBR red luminescence, cell number.
Where [2] appears, read: measured here: IkBa-CBG green luminescence.

For `COc1ccccc1NCC(O)Cn1c2ccccc2c2ccccc21` (centres undefined), the AC50 under setting [1] was 29.1 µM [falling, single point].

With `O=C(/C=C/c1ccc(Br)cc1)NC(=S)NNC(=O)c1ccco1`, the AC50 under setting [1] is 0.411 µM [rising, full curve].

Consider `Cc1ccsc1CNn1cnnc1SCc1ccc(Cl)cc1`, for which the AC50 under setting [1] is 8.2 µM [rising, partial curve, poor fit].

Turning to `COc1ccccc1N1CCN(S(=O)(=O)c2c(C)ccc3nsnc23)CC1`, the AC50 under setting [1] is 14.6 µM [rising, partial curve, poor fit].

`O=C(Nc1cccc(S(=O)(=O)N2CCCCCC2)c1)c1cc(=O)c2ccccc2o1`: the AC50 under setting [1] is 6.31 µM [falling, full curve].

For `O=C(COC(=O)C1COc2ccccc2O1)Nc1ccc2c(c1)CCC2` (centres undefined), the AC50 under setting [1] was 14.1 µM [rising, partial curve, poor fit].

`CCOc1ccc(CSC(=N)N)cc1[N+](=O)[O-]`: the AC50 under setting [1] was 16.4 µM [falling, partial curve, poor fit].

As to `Cc1ccc(C2/C(=C(/O)c3cnn(-c4ccccc4)c3C)C(=O)C(=O)N2CCCN2CCOCC2)o1` (centres undefined), the AC50 under setting [1] is 2 µM [rising, partial curve, poor fit].

As for `CCOC(=O)C1C(=O)C=C(c2ccc(C)cc2)CC1c1cccc([N+](=O)[O-])c1` (centres undefined), the AC50 under setting [2] is 18.4 µM [rising, partial curve, poor fit].

On to `c1ccc(CSc2nc3ccccc3[nH]2)cc1`, for which the AC50 under setting [1] was 3.98 µM [rising, full curve].

`C=CC[C@@H](CC(=O)N[C@H](CO)Cc1ccccc1)C(=O)N[C@H](COC(=O)[C@@H](CC=C)Cc1ccc(F)cc1)C(C)(C)C`: the AC50 under setting [1] is 18.4 µM [falling, single point].

Take `O=C(Nc1ccc2c(c1)OCCO2)c1ccccn1`: the AC50 under setting [1] is 11.2 µM [falling, partial curve].

Turning to `COC(=O)c1ccc(Oc2nc3c(c(=O)n(C)c(=O)n3C)n2CCC(C)C)cc1`, under setting [1], the AC50 is 2.31 µM [rising, full curve].

In the case of `CCc1cccc2c(C(=O)CN3C(=O)N(C)C4(CCCCC4)C3=O)c[nH]c12`, under setting [1], the AC50 was 6.51 µM [falling, single point].

Take `CCSC1=N/C(=C\c2ccc(C(=O)O)cc2)C(=O)S1`: the AC50 under setting [1] was 14.1 µM [falling, partial curve].

With `CCOC(=O)CNC(=O)CSc1nnc(-c2c[nH]c3ccccc23)n1CC`, the AC50 under setting [1] was 35.5 µM [rising, single point].

`CCCCC(=O)Nc1ccc2oc(-c3ccncc3)nc2c1`: the half-maximal activity concentration (AC50) under setting [1] was 1.3 µM [rising, full curve, poor fit].

`CN(C(=O)C1CCCN1S(=O)(=O)c1ccc(Cl)cc1)c1ccccc1` (centres undefined): under setting [1], the AC50 was 5.17 µM [falling, single point].

`O=C(Nc1ccc(Oc2ccccc2)nc1)C1CCN(Cc2cccc(F)c2)CC1`: the AC50 under setting [1] was 35.5 µM [falling, single point].

As for `O=S1(=O)C=C(Sc2nc3cc(Cl)ccc3o2)c2ccccc21`, the AC50 under setting [2] was 5.62 µM [falling, full curve].

For the compound `COCC(=O)Nc1cc(OC)c(Cl)cc1OC`, under setting [1], the AC50 is 0.206 µM [rising, full curve, poor fit].

For the compound `COC(=O)c1ccc(C(=O)Nc2ccc3c(c2)C(=O)NC3=O)cc1`, under setting [1], the AC50 is 0.562 µM [falling, full curve, poor fit].

As for `COc1cccc(C2CC(c3cccs3)=NN2C(=O)c2ccco2)c1O` (centres undefined), under setting [1], the AC50 is 35.5 µM [falling, single point].

Regarding `O=C(O)c1cc(-c2c[nH]c3ccccc23)nc2cc3ccccc3cc12`, under setting [1], the half-maximal activity concentration (AC50) was 7.08 µM [falling, partial curve].

As for `COc1ccc(-n2c(COc3cccc(C)c3)nnc2SCC(=O)NCc2ccco2)cc1`, under setting [1], the AC50 was 5.17 µM [falling, full curve, poor fit].

Turning to `CCCCCOc1ccc(CSCCNC(=S)Nc2ccccc2)cc1`, the AC50 under setting [1] is 29.1 µM [falling, single point].

Consider `O=C(N=Nc1c(O)[nH]c2ccccc12)c1cc(-c2cccs2)[nH]n1`, for which the AC50 under setting [1] is 0.316 µM [falling, full curve, poor fit].

For `COc1ccc(NC(=O)CN(C)C(=O)c2ccccc2OC)cc1`, the AC50 under setting [1] was 10 µM [rising, partial curve, poor fit].

As to `CCCn1c(SCC(=O)Nc2cccc(C)n2)nnc1-c1ccco1`, the AC50 under setting [1] is 7.94 µM [falling, partial curve, poor fit].

For the compound `CCOc1ccc(NC(=O)C(C)SC(N)=O)cc1` (centres undefined), the AC50 under setting [1] was 12.6 µM [falling, partial curve, poor fit].

Consider `O=c1[nH]c(SCc2nc3c(cnn3-c3ccccc3)c(=O)[nH]2)nc2ccccc12`, for which the AC50 under setting [1] was 5.01 µM [falling, partial curve, poor fit].

On to `O=C(/C(C=Nc1cccc(C(F)(F)F)c1)=C(/O)c1ccco1)C(F)(F)F`, for which the AC50 under setting [1] is 2.06 µM [rising, full curve, poor fit].

Take `CC(NC(=O)CN1C(=O)NC(C)(c2cccc3ccccc23)C1=O)c1ccccc1` (centres undefined): under setting [1], the AC50 is 3.55 µM [falling, single point].

In the case of `COc1ccccc1OCCNC(=O)Nc1cc(F)c(F)cc1Cl`, the AC50 is 10 µM [falling, partial curve, poor fit] under setting [1] and 11.2 µM [rising, single point] under setting [2].

For `CCCCSc1nc(C)c(C(C)=O)cc1C#N`, the AC50 by setting is: under setting [1], 10 µM [rising, partial curve, poor fit]; under setting [2], 11.2 µM [falling, single point].

On to `CC1=NN(C(=O)c2cccnc2)C(O)(C(F)(F)F)C1` (centres undefined), for which the AC50 under setting [1] was 14.1 µM [falling, single point].

On to `CC1(c2nnc(-c3ccc(F)cc3)o2)CC(c2cccc(Cl)c2)=NO1` (centres undefined), for which the AC50 under setting [1] was 5.62 µM [rising, partial curve, poor fit].

`CN1CCN(C(=S)C(=O)Nc2ccc(Br)cc2)CC1`: the AC50 under setting [1] is 22.4 µM [rising, single point].

With `O=C(Nc1nc2ccccc2[nH]1)c1cccs1`, the AC50 under setting [1] is 3.98 µM [falling, full curve, poor fit].

As for `O=C(COc1ccccc1F)NNC(=O)c1ccc(F)c(S(=O)(=O)N2CCOCC2)c1`, the half-maximal activity concentration (AC50) under setting [1] is 0.082 µM [rising, full curve, poor fit].

For the compound `COc1ccccc1NC(=O)CC1C(=O)Nc2c1c(=O)n(C)c(=O)n2C` (centres undefined), the AC50 under setting [1] is 0.631 µM [falling, full curve, poor fit].

For `COc1ccc(CCNC(=O)c2[nH]c(C)c(C(C)=O)c2C)cc1`, under setting [1], the half-maximal activity concentration (AC50) was 29.1 µM [rising, single point].

Turning to `C=CCn1c(=O)c2c(nc3n2CC(C)CN3Cc2ccccc2)n(C)c1=O` (centres undefined), the AC50 under setting [1] is 35.5 µM [rising, single point].

With `Nc1ccc(C(=O)OC2CCOC2=O)cc1[N+](=O)[O-]` (centres undefined), the AC50 under setting [1] was 6.51 µM [rising, single point].

As to `Cc1ccccc1OCC(O)CN1CCN(CC(O)COc2ccccc2C)C(C)C1` (centres undefined), under setting [1], the AC50 was 17.8 µM [falling, single point].

With `CC(=O)[C@@H]1[C@@H](C(=O)c2ccc(C)cc2)[C@]2(C(=O)Nc3ccccc32)[C@H]2C=Cc3cc(F)ccc3N12`, under setting [1], the AC50 is 1.26 µM [falling, full curve].

For `COc1ccc(-n2nc3c(N4CCCC(C(=O)NCc5ccccc5C)C4)nnc(C)c3c2C)cc1` (centres undefined), the AC50 is, setting by setting: under setting [1], 29.1 µM [falling, single point]; under setting [2], 25.9 µM [rising, partial curve, poor fit].

In the case of `O=C(c1ccc(CS(=O)Cc2ccccc2Cl)o1)N1CCN(C2CCCCC2)CC1` (centres undefined), the AC50 under setting [1] was 0.355 µM [rising, partial curve, poor fit].

`Cc1cc(C(=O)Cn2cc(C(F)(F)F)ccc2=O)c(C)n1-c1ccccc1`: the AC50 under setting [1] was 8.2 µM [rising, partial curve].

In the case of `CC(C)CNC(=O)CC(c1ccccc1)c1c(O)ccc2ccccc12` (centres undefined), under setting [1], the half-maximal activity concentration (AC50) was 22.4 µM [falling, single point].

Turning to `CC(=O)Nc1ccc2nc(-c3ccccc3)cn2c1`, under setting [1], the AC50 was 29.1 µM [falling, single point].

With `CC(C)CN1C(=O)NC(NC(=O)c2cccs2)(C(F)(F)F)C1=O` (centres undefined), under setting [1], the AC50 was 35.5 µM [rising, single point].

In the case of `CCCCC(C)(O)C/C=C/[C@H]1[C@H](O)CC(=O)[C@@H]1CCCCCCC(=O)OC` (some centres undefined), the AC50 was 1.16 µM [rising, full curve] under setting [1] and 2.31 µM [falling, full curve] under setting [2].

Turning to `FC(F)(F)c1nnc(-c2ccccc2)nc1Oc1ccc(Cl)cc1Cl`, the AC50 under setting [1] was 20 µM [falling, single point].

As for `O=C(CN1C(=O)C2CC=CCC2C1=O)Nc1nc2ccccc2s1` (centres undefined), the AC50 under setting [1] is 8.91 µM [falling, partial curve] and the AC50 under setting [2] is 7.08 µM [rising, partial curve, poor fit].

In the case of `O=[N+]([O-])c1ccc(OCc2cnc(Cl)s2)c([N+](=O)[O-])c1`, the AC50 under setting [1] is 35.5 µM [rising, single point].

`Cc1nc2ccccc2c2oc(C(=O)NCc3ccc4c(c3)OCO4)cc12`: the concentration at half-maximal activity (AC50) runs as follows: under setting [1], 11.2 µM [falling, partial curve]; under setting [2], 20.6 µM [rising, partial curve, poor fit].

As for `CC(CNC(=O)C(C)(C)C)NC(=O)C(C)(C)C` (centres undefined), the AC50 under setting [1] is 4.11 µM [rising, full curve].

With `COc1ccc(-n2cc(-c3ccccc3)nc2SC)cc1`, the concentration at half-maximal activity (AC50) under setting [1] was 0.326 µM [rising, full curve, poor fit].

`COC(=O)C(NNc1ccccc1)(NC(=O)c1ccc(F)cc1)C(F)(F)F` (centres undefined): the concentration at half-maximal activity (AC50) under setting [1] is 35.5 µM [rising, single point].

As to `c1ccc(CNc2ccc(CNc3ncn[nH]3)cc2)cc1`, the AC50 under setting [1] is 29.1 µM [rising, single point].

For `COc1cc(/C=C2\COC/C(=C\c3cc(OC)c(OC)c(OC)c3)C2=O)cc(OC)c1OC`, the AC50 under setting [1] is 0.112 µM [rising, full curve, poor fit] and the AC50 under setting [2] was 2.24 µM [falling, partial curve, poor fit].

These data come from PubChem BioAssay AID493014 (National Center for Advancing Translational Sciences (NCATS), 2011).
